Values quoted from earlier work in US20020168685A1, “Covalent chemical inducers of protein dimerization and their uses in high throughput binding screens” (priority 2001, published 2002).
At least one compound was matched to its structure with a doubt left.

Conditions: cited from earlier work

Question: Which acid/base sensitivity does the source give for C=CC[C@@H]1/C=C(\C)C[C@H](C)C[C@H](OC)[C@H]2O[C@@](O)(C(=O)C(=O)N3CCCC[C@H]3C(=O)O[C@H](/C(C)=C/[C@@H]3CC[C@@H](O)[C@H](OC)C3)[C@H](C)[C@@H](O)CC1=O)[C@H](C)C[C@@H]2OC [FK506] here?
Answer: both acid and base-sensitive
